Experimental findings from PMC10556777 are described below.

Sequences of proteins named here, by UniProt entry; tags and fusion partners are left off. A change or cut given only in a name is not applied to a line headed by its entry.
UniProt P35637: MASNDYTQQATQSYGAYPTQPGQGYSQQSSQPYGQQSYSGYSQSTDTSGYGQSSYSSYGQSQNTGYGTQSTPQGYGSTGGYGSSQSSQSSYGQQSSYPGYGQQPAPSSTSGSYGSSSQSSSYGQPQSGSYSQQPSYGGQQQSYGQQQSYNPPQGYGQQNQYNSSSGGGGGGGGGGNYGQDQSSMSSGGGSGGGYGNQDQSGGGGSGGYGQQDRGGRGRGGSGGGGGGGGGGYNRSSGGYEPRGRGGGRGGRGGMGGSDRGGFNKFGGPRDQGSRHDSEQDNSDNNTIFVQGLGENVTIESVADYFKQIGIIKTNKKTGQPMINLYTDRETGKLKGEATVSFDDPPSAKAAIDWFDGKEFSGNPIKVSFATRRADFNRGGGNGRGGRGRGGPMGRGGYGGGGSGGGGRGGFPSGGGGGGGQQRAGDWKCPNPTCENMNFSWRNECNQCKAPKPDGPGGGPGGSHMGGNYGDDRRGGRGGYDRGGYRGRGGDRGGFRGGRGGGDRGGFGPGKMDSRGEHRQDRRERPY
UniProt P00573: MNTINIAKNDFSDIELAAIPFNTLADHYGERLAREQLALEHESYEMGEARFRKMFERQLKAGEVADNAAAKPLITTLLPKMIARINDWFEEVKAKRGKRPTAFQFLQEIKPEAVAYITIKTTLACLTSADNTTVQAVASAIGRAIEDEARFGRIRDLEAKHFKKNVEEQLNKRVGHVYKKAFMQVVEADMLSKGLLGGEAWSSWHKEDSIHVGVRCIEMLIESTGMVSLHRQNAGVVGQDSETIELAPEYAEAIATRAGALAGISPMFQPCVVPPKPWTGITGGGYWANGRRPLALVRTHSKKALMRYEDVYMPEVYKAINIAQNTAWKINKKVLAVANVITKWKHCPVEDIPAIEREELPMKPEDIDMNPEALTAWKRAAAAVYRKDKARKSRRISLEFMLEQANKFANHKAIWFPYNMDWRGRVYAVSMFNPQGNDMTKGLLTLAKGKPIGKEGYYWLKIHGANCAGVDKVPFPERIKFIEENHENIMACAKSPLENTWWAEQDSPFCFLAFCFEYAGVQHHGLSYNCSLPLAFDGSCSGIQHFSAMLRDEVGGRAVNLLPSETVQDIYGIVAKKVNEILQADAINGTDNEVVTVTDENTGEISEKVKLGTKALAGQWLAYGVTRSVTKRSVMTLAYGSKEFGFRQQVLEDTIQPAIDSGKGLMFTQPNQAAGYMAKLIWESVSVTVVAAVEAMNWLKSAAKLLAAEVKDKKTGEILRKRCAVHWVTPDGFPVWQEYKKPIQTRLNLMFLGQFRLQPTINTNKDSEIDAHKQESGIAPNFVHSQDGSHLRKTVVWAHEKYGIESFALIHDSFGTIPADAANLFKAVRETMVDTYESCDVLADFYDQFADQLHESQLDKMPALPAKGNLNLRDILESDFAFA

This assay deals with FUS (FUSed in sarcoma), recombinant with N-terminal 6xHis and maltose binding protein (MBP) (UniProt P35637). Description: co-IP; recombinant FUS (1.3 ug) immobilised with anti-FUS (4H11) antibody on Protein A/G agarose beads in PBS pH 7.4 with 0.1 mg/ml BSA; beads incubated with T7 Pol 1 h at room temperature, washed in high salt and TBS with 0.1% NP-40 substitute; Western blot with anti-FUS and anti-His; with RNA present or absent, also with linear DNA template; N = 4; both purified. A general note: Immunoblotting shows a protein as a band on a membrane.

These are yes or no findings as the source states them, for the method shown.

With “T7(P266L) polymerase fused with a 6xHis tag (from UniProt P00573 1-883) (enzyme)”, the binding result is listed as “no binding”.
